Results: US20250361284A1, “TRANSPOSASE FUSION PROTEINS FOR USE IN CELL AND GENE THERAPY” (JULIUS-MAXIMILIANS-UNIVERSITÄT WÜRZBURG, priority 2022, published 2025)

What was measured:
[1] = system: dd-SB100X fusion transposase; assay: Immunoblot: time and dose-dependent regulation of dd-SB100X expression by TMP in human T cells; type: cell-based
Lenti-X 293T cells = assay: Immunoblot of SB fusion-transposase protein expression and regulation by small molecules in Lenti-X 293T cells; type: cell-based, human; conditions: 24 hours
HeLa cells = assay: Immunoblot of dd-SB100X fusion-transposase expression in HeLa cells; type: cell-based, human

B1: dd-SB100X: ecDHFR destabilizing domain fused via linker to N-terminus of SB100X transposase; SEQ ID NO: 2 (protein)
chain: MISLIAALAVDYVIGMENAMPWNLPADLAWFKRNTLNKPVIMGRHTWESIGRPLPGRKNIILSSQPSTDDRVTWVKSVDEAIAACGDVPEIMVIGGGRVIEQFLPKAQKLYLTHIDAEVEGDTHFPDYEPDDWESVFSEFHDADAQNSHSYCFEILERKLGGGAPAVGGGPKMGKSKEISQDLRKRIVDLHKSGSSLGAISKRLAVPRSSVQTIVRKYKHHGTTQPSYRSGRRRVLSPRDERTLVRKVQINPRTTAKDLVKMLEETGTKVSISTVKRVLYRHNLKGHSARKKPLLQNRHKKARLRFATAHGDKDRTFWRNVLWSDETKIELFGHNDHRYVWRKKGEACKPKNTIPTVKHGGGSIMLWGCFAAGGTGALHKIDGIMDAVQYVDILKQHLKTSVRKLKLGRKWVFQHDNDPKHTSKVVAKWLKDNKVKVLEWPSQSPDLNPIENLWAELKKRVRARRPTNLTQLHQLCQEEWAKIHPNYCGKLVEGYPKRLTQVKQFKGNATKY
modifications: misc_feature 1..1539 ecDHFR-SB100X
With B1 the “transposase protein (immunoblot) at 7 days post nucleofection” value ([1]; 7 days post nucleofection, CD4+ and CD8+ T cells) was “completely free of transposase protein”, the “fusion-transposase protein level (immunoblot)” value ([1]; TMP 1000 nM for 24 hours, CD4+ & CD8+ T cells) was “high amount of fusion-transposase protein” and the “fusion-transposase protein level (immunoblot)” value ([1]; absence of TMP (Off state)) was “rapidly subjected to degradation; also recorded: reduced”. The “fusion-transposase protein level (immunoblot)” value (Lenti-X 293T cells; absence of TMP (DMSO control)) was “rapidly degraded”, the “fusion-transposase protein level (immunoblot)” value (Lenti-X 293T cells; presence of trimethoprim 10 nM to 1000 nM) was “stabilized” and the “fusion-transposase protein (immunoblot)” value (HeLa cells; absence of TMP) was “no residual fusion transposase protein was detectable after day 2”. For the same molecule, the “fusion-transposase protein (immunoblot)” value (HeLa cells; presence of TMP, days 1-3 after transfection) was “detected”.

Entries after “also recorded” stand apart in the source; their conditions may differ.
